{"sequences": {"note": "Sequences of proteins named here, by UniProt entry; tags and fusion partners are left off. Residues count along the entry.", "UniProt Q640N2": "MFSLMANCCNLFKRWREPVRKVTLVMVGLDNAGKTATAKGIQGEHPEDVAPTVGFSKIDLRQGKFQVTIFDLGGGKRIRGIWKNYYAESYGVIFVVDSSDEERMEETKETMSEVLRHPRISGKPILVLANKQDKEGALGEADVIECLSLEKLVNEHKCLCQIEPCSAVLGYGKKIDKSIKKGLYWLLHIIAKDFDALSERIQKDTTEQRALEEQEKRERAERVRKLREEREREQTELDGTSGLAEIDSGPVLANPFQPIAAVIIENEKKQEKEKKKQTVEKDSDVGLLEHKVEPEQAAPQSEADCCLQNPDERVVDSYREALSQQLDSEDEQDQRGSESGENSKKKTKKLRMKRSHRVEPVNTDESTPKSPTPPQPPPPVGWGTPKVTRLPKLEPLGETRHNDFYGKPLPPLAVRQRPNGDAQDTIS", "UniProt P56726, residues 33-793": "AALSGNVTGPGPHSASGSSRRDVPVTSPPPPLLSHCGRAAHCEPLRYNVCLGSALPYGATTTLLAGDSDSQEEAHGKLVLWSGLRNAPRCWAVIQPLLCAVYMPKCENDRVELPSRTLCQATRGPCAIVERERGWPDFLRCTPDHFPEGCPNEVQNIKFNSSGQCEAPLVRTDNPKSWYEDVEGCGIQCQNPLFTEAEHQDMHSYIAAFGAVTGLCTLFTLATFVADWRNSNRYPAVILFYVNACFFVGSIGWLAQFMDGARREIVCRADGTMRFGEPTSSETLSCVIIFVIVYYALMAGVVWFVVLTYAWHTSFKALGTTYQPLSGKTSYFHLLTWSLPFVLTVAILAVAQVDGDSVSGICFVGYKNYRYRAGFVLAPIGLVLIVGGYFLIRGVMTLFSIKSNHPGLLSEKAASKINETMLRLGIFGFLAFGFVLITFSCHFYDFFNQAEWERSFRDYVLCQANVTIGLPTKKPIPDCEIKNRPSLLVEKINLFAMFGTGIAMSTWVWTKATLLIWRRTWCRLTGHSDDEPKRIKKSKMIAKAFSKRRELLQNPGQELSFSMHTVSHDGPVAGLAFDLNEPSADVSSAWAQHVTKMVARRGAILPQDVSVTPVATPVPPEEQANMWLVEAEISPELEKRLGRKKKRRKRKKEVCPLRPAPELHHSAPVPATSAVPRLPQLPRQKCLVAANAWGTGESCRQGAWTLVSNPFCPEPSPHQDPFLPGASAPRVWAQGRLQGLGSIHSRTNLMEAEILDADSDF", "UniProt B2RPY5": "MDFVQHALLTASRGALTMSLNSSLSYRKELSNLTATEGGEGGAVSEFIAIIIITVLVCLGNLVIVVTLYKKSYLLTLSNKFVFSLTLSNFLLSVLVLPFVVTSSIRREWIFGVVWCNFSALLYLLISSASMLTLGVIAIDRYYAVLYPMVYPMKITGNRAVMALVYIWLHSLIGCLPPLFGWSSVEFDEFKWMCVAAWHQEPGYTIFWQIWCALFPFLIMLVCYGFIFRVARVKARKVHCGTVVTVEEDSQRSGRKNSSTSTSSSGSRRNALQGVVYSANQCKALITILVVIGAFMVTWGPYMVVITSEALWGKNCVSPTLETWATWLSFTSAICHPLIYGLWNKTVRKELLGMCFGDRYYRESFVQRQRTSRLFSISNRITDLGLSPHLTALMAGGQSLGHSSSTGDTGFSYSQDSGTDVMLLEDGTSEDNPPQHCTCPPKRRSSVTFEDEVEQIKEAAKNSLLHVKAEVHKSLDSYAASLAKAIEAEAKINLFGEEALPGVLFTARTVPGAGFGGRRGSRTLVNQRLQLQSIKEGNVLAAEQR", "UniProt P48432": "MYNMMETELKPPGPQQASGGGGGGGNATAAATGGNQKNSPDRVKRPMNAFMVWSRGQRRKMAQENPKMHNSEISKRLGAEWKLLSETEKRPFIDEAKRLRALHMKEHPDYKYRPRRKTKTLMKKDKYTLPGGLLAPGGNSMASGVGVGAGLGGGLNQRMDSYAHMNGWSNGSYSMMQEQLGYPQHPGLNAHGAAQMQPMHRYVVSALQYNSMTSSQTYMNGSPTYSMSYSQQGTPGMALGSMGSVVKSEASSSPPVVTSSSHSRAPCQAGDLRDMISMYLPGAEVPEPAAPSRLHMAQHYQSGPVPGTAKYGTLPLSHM", "UniProt P63094": "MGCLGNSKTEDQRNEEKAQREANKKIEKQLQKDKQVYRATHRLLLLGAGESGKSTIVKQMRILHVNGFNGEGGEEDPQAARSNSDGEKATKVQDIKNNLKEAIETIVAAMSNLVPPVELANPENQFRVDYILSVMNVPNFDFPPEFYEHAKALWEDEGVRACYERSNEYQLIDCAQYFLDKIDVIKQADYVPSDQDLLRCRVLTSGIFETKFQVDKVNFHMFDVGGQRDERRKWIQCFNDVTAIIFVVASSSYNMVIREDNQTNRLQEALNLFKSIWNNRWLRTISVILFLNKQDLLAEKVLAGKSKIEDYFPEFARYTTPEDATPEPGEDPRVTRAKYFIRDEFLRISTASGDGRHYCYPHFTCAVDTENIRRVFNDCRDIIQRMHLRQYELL", "UniProt P47746": "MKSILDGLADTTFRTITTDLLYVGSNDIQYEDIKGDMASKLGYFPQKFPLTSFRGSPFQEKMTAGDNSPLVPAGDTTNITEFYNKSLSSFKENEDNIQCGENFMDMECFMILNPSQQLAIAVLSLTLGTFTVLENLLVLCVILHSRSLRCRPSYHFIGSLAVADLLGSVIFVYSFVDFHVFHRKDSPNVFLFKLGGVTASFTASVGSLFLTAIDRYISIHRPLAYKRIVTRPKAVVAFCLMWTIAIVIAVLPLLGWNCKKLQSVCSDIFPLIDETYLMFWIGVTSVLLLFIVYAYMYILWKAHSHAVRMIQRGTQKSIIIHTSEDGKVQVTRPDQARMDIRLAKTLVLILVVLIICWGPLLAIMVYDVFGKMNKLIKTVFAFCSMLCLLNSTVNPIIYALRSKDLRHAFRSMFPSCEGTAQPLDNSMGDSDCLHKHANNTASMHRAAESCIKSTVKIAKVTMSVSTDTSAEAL"}, "source": "paper PMC6831672", "key": {"[1]": {"molecular_target": "Arl13b (mouse (endogenous in C57BL/6J embryos)) (UniProt Q640N2)", "test": "proximity ligation; DuoLink PLA on 7 um paraffin sections of paraformaldehyde-fixed GD 9.5 mouse embryo neural tube; pairs of primary antibodies bound within 40 nm; confocal imaging"}, "[2]": {"molecular_target": "Smoothened (mouse (endogenous in C57BL/6J embryos)) (UniProt P56726)", "test": "co-IP; anti-Smo affinity resin, CHAPS-solubilised GD 8 whole mouse embryos pooled as a litter, 3 hrs at 0-4 °C; blots for CB1R and Gαs; dams treated with CB vehicle, alcohol 2.8 g/kg, CP 55,940 0.25 mg/kg or both"}, "[3]": {"molecular_target": "GPR 161 (mouse (endogenous in C57BL/6J embryos)) (UniProt B2RPY5)", "test": "proximity ligation; DuoLink PLA on 7 um paraffin sections of paraformaldehyde-fixed GD 9.5 mouse embryo neural tube; pairs of primary antibodies bound within 40 nm; confocal imaging"}, "[4]": {"molecular_target": "Sox-2 (mouse (endogenous in C57BL/6J embryos)) (UniProt P48432)", "test": "proximity ligation; DuoLink PLA on 7 um paraffin sections of paraformaldehyde-fixed GD 9.5 mouse embryo neural tube; pairs of primary antibodies bound within 40 nm; confocal imaging"}}, "note": "These are yes or no findings as the source states them, for the method shown. Binding seen in cells or lysates may run through a third protein. Some entries that bind do so weakly or less than the wild type.", "data": [{"substance": "Smoothened (from UniProt P56726 33-793) (receptor)", "values": [{"measurement": "binding", "setting": "[1]", "value": "no binding"}]}, {"substance": "Gαs (from UniProt P63094 1-394)", "values": [{"measurement": "binding", "setting": "[2]", "value": "binds"}]}, {"substance": "CB1 receptor (from UniProt P47746 1-473)", "values": [{"measurement": "binding", "setting": "[3]", "value": "binds"}, {"measurement": "binding", "setting": "[4]", "value": "no binding"}]}]}
